Measured values from publication PMC4476799, “Englerin A Agonizes the TRPC4/C5 Cation Channels to Inhibit Tumor Cell Line Proliferation” (PLoS ONE, 2015).
This continues a long series; more values of the same kind are listed elsewhere.

Test system: cancer cell lines from the cancer cell line encyclopedia (CCLE)
Assay: Cell line profiling (CLiP) proliferation experiment
Format: cell-based
Design: ACTIVITY_AREA: scale not given here; AMAX: unit not given here
Procedure: Compound profiling experiment and data analysis was performed as previously described. Data was imported and plotted using the Tibco Spotfire DXP application. Lines were categorized as sensitive, intermediate and refractory as follows: Amax<-40 & Inflection Point <2 ~ Sensitive, Amax>-20 & Inflection Point >10 ~ Refractory, all else were called Intermediate. Cancer Cell line HG-U133 Plus 2 data was processed and normalized as described. […] Five sets of refractory cell lines were generated from the pool of refractory cell lines trying to match the lineage composition of the set of sensitive cell lines. The limma package was used as previously described to perform the statistical comparison.

[1] = Calu-1, lung, squamous_cell_carcinoma
[2] = EOL-1 (haematopoietic_and_lymphoid_tissue)
[3] = FaDu (upper_aerodigestive_tract)
[4] = Ishikawa (Heraklio) 02 ER- cells

SMILES: CC(C)[C@@]12C[C@@H](O)[C@@](C)(O1)[C@@H]1CC[C@@H](C)[C@H]1[C@@H]2OC(=O)/C=C/c1ccccc1 [Englerin B]
- AMAX (COR-L23 (lung)): -39.64
- RESPONSE (COR-L23 (lung)): INTERMEDIATE
- ACTIVITY_AREA (COR-L47 cells): 92.1
- AMAX (COR-L47 cells): -15.76
- RESPONSE (COR-L47 cells): REFRACTORY
- ACTIVITY_AREA (COR-L88 (lung)): 20.83
- AMAX (COR-L88 (lung)): -31.56
- RESPONSE (COR-L88 (lung)): INTERMEDIATE
- ACTIVITY_AREA (COR-L279 (lung)): 130.29
- AMAX (COR-L279 (lung)): -86.84
- RESPONSE (COR-L279 (lung)): INTERMEDIATE
- ACTIVITY_AREA (COV318 (ovary)): 39.59
- AMAX (COV318 (ovary)): -54.13
- RESPONSE (COV318 (ovary)): INTERMEDIATE
- ACTIVITY_AREA (COV644 cells): 35.24
- AMAX (COV644 cells): -28.86
- RESPONSE (COV644 cells): INTERMEDIATE
- ACTIVITY_AREA (Caki-1 (kidney)): 27.97
- AMAX (Caki-1 (kidney)): -31.84
- RESPONSE (Caki-1 (kidney)): INTERMEDIATE
- ACTIVITY_AREA (Caki-2 (kidney)): 52.8
- AMAX (Caki-2 (kidney)): -38.65
- RESPONSE (Caki-2 (kidney)): INTERMEDIATE
- ACTIVITY_AREA [1]: 52.11
- AMAX [1]: -42.82
- RESPONSE [1]: INTERMEDIATE
- ACTIVITY_AREA (Calu-3 (lung)): 19.78
- AMAX (Calu-3 (lung)): 4.65
- RESPONSE (Calu-3 (lung)): REFRACTORY
- ACTIVITY_AREA (Calu-6 cells): 28.42
- AMAX (Calu-6 cells): -47.13
- RESPONSE (Calu-6 cells): INTERMEDIATE
- ACTIVITY_AREA (Capan-1 (pancreas)): 29.63
- AMAX (Capan-1 (pancreas)): -25.75
- RESPONSE (Capan-1 (pancreas)): INTERMEDIATE
- ACTIVITY_AREA (DAN-G cells): 26.93
- AMAX (DAN-G cells): -50.77
- RESPONSE (DAN-G cells): INTERMEDIATE
- ACTIVITY_AREA (DK-MG (central_nervous_system)): 33.27
- AMAX (DK-MG (central_nervous_system)): -67.8
- RESPONSE (DK-MG (central_nervous_system)): INTERMEDIATE
- ACTIVITY_AREA (DMS 79 (lung)): 49.26
- AMAX (DMS 79 (lung)): -10.4
- RESPONSE (DMS 79 (lung)): REFRACTORY
- ACTIVITY_AREA (DMS 273 (lung)): 29.68
- AMAX (DMS 273 (lung)): -73.92
- RESPONSE (DMS 273 (lung)): INTERMEDIATE
- ACTIVITY_AREA (Daoy (central_nervous_system)): 43
- AMAX (Daoy (central_nervous_system)): -39.21
- RESPONSE (Daoy (central_nervous_system)): INTERMEDIATE
- ACTIVITY_AREA (EBC-1 (lung)): 56.14
- AMAX (EBC-1 (lung)): -53.25
- RESPONSE (EBC-1 (lung)): INTERMEDIATE
- ACTIVITY_AREA [2]: 60.59
- AMAX [2]: -94.78
- RESPONSE [2]: INTERMEDIATE
- ACTIVITY_AREA [3]: 21.14
- AMAX [3]: -61.31
- RESPONSE [3]: INTERMEDIATE
- ACTIVITY_AREA (G-402 (soft_tissue)): 90.01
- AMAX (G-402 (soft_tissue)): -70.25
- RESPONSE (G-402 (soft_tissue)): INTERMEDIATE
- ACTIVITY_AREA (GAMG (central_nervous_system)): 50.48
- AMAX (GAMG (central_nervous_system)): -45.21
- RESPONSE (GAMG (central_nervous_system)): INTERMEDIATE
- ACTIVITY_AREA (Hs 940.T cells): 53.93
- AMAX (Hs 940.T cells): -48.14
- RESPONSE (Hs 940.T cells): INTERMEDIATE
- ACTIVITY_AREA (IGR-1 cells): 22.7
- AMAX (IGR-1 cells): 1.27
- RESPONSE (IGR-1 cells): REFRACTORY
- ACTIVITY_AREA (IGROV1 cells): 38.35
- AMAX (IGROV1 cells): -25.23
- RESPONSE (IGROV1 cells): INTERMEDIATE
- ACTIVITY_AREA (IMR-32): 27.44
- RESPONSE (IMR-32): INTERMEDIATE
- ACTIVITY_AREA (IMR-32 cells): 27.44
- AMAX (IMR-32 cells): -58.42
- RESPONSE (IMR-32 cells): INTERMEDIATE
- ACTIVITY_AREA (IPC-298): 31.6
- AMAX (IPC-298): -31.36
- RESPONSE (IPC-298): INTERMEDIATE
- ACTIVITY_AREA (Ishikawa (Heraklio) 02 ER-): 61.49
- AMAX (Ishikawa (Heraklio) 02 ER-): -30.52
- RESPONSE (Ishikawa (Heraklio) 02 ER-): INTERMEDIATE
- ACTIVITY_AREA [4]: 61.49
- AMAX [4]: -30.52
- RESPONSE [4]: INTERMEDIATE
- ACTIVITY_AREA (J82): 6.63
- AMAX (J82): -28.14
- RESPONSE (J82): INTERMEDIATE
- ACTIVITY_AREA (JHH-2): 49.18
- AMAX (JHH-2): -46.72
- RESPONSE (JHH-2): INTERMEDIATE
- ACTIVITY_AREA (JHH-5): 87.62
- AMAX (JHH-5): -77.22
- RESPONSE (JHH-5): INTERMEDIATE
- ACTIVITY_AREA (JHH-5 cells): 87.62
- AMAX (JHH-5 cells): -77.22
- RESPONSE (JHH-5 cells): INTERMEDIATE
- ACTIVITY_AREA (JHH-7): 83.45
- AMAX (JHH-7): -63.4
- RESPONSE (JHH-7): INTERMEDIATE
- ACTIVITY_AREA (JHH-7 cells): 83.45
- AMAX (JHH-7 cells): -63.4
- RESPONSE (JHH-7 cells): INTERMEDIATE
- ACTIVITY_AREA (JHOM-1): 17.33
- AMAX (JHOM-1): -51.79
- RESPONSE (JHOM-1): INTERMEDIATE
- ACTIVITY_AREA (JHUEM-2): 66.85
- AMAX (JHUEM-2): -64.47
- RESPONSE (JHUEM-2): INTERMEDIATE
- ACTIVITY_AREA (JHUEM-2 cells): 66.85
- AMAX (JHUEM-2 cells): -64.47
- RESPONSE (JHUEM-2 cells): INTERMEDIATE
- ACTIVITY_AREA (JIMT-1): 104.64
- AMAX (JIMT-1): -45.73
- RESPONSE (JIMT-1): INTERMEDIATE
- ACTIVITY_AREA (JIMT-1 cells): 104.64
- AMAX (JIMT-1 cells): -45.73
- RESPONSE (JIMT-1 cells): INTERMEDIATE
- ACTIVITY_AREA (JJN-3): 16.87
- AMAX (JJN-3): -1.17
- RESPONSE (JJN-3): REFRACTORY
- ACTIVITY_AREA (JURKAT): 72.2
- AMAX (JURKAT): -83.41
- RESPONSE (JURKAT): INTERMEDIATE
- ACTIVITY_AREA (JVM-2): 24.94
- AMAX (JVM-2): -71.84
- RESPONSE (JVM-2): INTERMEDIATE
- ACTIVITY_AREA (JVM-2 cells): 24.94
- AMAX (JVM-2 cells): -71.84
- RESPONSE (JVM-2 cells): INTERMEDIATE
- ACTIVITY_AREA (JVM-3): 18.3
- AMAX (JVM-3): 3.55
- RESPONSE (JVM-3): REFRACTORY
- ACTIVITY_AREA (JeKo-1): 56.66
- AMAX (JeKo-1): -89.85
- RESPONSE (JeKo-1): INTERMEDIATE
- ACTIVITY_AREA (JeKo-1 cells): 56.66
- AMAX (JeKo-1 cells): -89.85
- RESPONSE (JeKo-1 cells): INTERMEDIATE
- ACTIVITY_AREA (K029AX): 17.85
- AMAX (K029AX): -36.4
- RESPONSE (K029AX): INTERMEDIATE
- ACTIVITY_AREA (K029AX (skin)): 17.85
- AMAX (K029AX (skin)): -36.4
- RESPONSE (K029AX (skin)): INTERMEDIATE
- ACTIVITY_AREA (K-562): 49.17
- AMAX (K-562): -49.05
- RESPONSE (K-562): INTERMEDIATE
- ACTIVITY_AREA (KARPAS-299): 51.51
- AMAX (KARPAS-299): -86.39
- RESPONSE (KARPAS-299): INTERMEDIATE
- ACTIVITY_AREA (KARPAS-422): 82.39
- AMAX (KARPAS-422): -81.82
- RESPONSE (KARPAS-422): INTERMEDIATE
- ACTIVITY_AREA (KARPAS-422 cells): 82.39
- AMAX (KARPAS-422 cells): -81.82
- RESPONSE (KARPAS-422 cells): INTERMEDIATE
- ACTIVITY_AREA (KARPAS-620): 32.66
- RESPONSE (KARPAS-620): INTERMEDIATE
- ACTIVITY_AREA (KASUMI-2): 22.15
- AMAX (KASUMI-2): -57.05
- RESPONSE (KASUMI-2): INTERMEDIATE
- ACTIVITY_AREA (KASUMI-2 cells): 22.15
- AMAX (KASUMI-2 cells): -57.05
- RESPONSE (KASUMI-2 cells): INTERMEDIATE
- ACTIVITY_AREA (KATO III): 50.08
- AMAX (KATO III): -60.06
- RESPONSE (KATO III): INTERMEDIATE
- ACTIVITY_AREA (KCL-22): 43.03
